# Reference: article PMC4303897
# Results are given in words; binding and its absence hold for the method and conditions named. Binding seen in cells or lysates may run through a third protein. Some binding calls cover weakened binding; strength is not graded here. For part of these data: Tags and fused reporters may be left off the sequences shown.
# T1: Mic60-Myc (human) (UniProt Q16891)
# T1 sequence: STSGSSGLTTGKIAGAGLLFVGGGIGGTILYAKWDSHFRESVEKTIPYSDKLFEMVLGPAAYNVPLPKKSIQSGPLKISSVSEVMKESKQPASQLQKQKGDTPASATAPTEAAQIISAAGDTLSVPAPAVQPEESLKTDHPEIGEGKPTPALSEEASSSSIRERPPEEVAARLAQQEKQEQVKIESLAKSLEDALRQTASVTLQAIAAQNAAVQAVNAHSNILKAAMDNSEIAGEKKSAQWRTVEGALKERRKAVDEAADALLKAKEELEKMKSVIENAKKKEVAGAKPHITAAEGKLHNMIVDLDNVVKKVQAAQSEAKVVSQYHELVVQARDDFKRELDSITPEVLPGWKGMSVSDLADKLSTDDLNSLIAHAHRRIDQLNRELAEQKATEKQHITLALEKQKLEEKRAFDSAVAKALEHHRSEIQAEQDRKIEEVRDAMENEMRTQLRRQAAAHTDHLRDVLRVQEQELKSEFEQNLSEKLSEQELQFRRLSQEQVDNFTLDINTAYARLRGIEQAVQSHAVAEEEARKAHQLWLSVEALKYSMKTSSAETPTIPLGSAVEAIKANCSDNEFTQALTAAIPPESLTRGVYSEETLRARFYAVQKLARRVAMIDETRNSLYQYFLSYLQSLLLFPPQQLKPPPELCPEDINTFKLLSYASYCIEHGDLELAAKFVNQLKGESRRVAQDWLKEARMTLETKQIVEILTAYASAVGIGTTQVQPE
# T2: endogenous Mic60 (human (endogenous in HEK293T)) (UniProt Q16891)
# T2 sequence: T1 sequence
# B1: TFAM-HA (protein, UniProt Q00059 43-246)
# chain: SSVLASCPKKPVSSYLRFSKEQLPIFKAQNPDAKTTELIRRIAQRWRELPDSKKKIYQDAYRAEWQVYKEEISRFKEQLTPSQIMSLEKEIMDKHLKRKAMTKKKELTLLGKPKRPRSAYNVYVAERFQEAKGDSPQEKLKTVKENWKNLSDSEKELYIQHAKEDETRYHNEMKSWEEQMIEVGRKDLLRRTIKKQRKYGAEEC
# B2: endogenous TFAM (protein, UniProt Q00059 43-246)
# chain: B1 chain
# B3: TFB2M-HA (protein, UniProt Q9H5Q4 20-396)
# chain: AGRFCILGSEAATRKHLPARNHCGLSDSSPQLWPEPDFRNPPRKASKASLDFKRYVTDRRLAETLAQIYLGKPSRPPHLLLECNPGPGILTQALLEAGAKVVALESDKTFIPHLESLGKNLDGKLRVIHCDFFKLDPRSGGVIKPPAMSSRGLFKNLGIEAVPWTADIPLKVVGMFPSRGEKRALWKLAYDLYSCTSIYKFGRIEVNMFIGEKEFQKLMADPGNPDLYHVLSVIWQLACEIKVLHMEPWSSFDIYTRKGPLENPKRRELLDQLQQKLYLIQMIPRQNLFTKNLTPMNYNIFFHLLKHCFGRRSATVIDHLRSLTPLDARDILMQIGKQEDEKVVNMHPQDFKTLFETIERSKDCAYKWLYDETLEDR
# Columns and labels:
# Mic60-Myc (human) = biological target: T1, Mic60-Myc (human); test: co-IP; lysates of HEK293T cells transfected with Mic60-Myc and TFAM-HA or TFB2M-HA; IP with antibodies to c-Myc or HA; extraction buffer 10 mM Tris-HCl pH 7.5, 150 mM NaCl, 1 mM EDTA, 0.5% NP-40, 1 mM DTT; immunoblot
# [1] = biological target: T2, endogenous Mic60 (human (endogenous in HEK293T)); test: co-IP; endogenous proteins in HEK293T cell lysates; rabbit polyclonal antibody to Mic60; extraction buffer 10 mM Tris-HCl pH 7.5, 150 mM NaCl, 1 mM EDTA, 0.5% NP-40, 1 mM DTT; immunoblot
Binder,binding (Mic60-Myc (human)),binding [1]
B1,binds,–
B2,–,binds
B3,binds,–
